Test results taken from the supplement of paper PMC10331698.
± gives the standard deviation of the averaged measurements. Most values lie at the level of the controls, where differences are scatter.

Tests used:
Assay in all cases: level (log10 ratio to DMSO vehicle control); higher = higher biomarker level / cell amount than vehicle control
1H,1H-Heptafluorobutanol = compound: OCC(F)(F)C(F)(F)C(F)(F)F [1H,1H-Heptafluorobutanol]; conditions: 2200 nM; in DMSO
Procedure: (§1)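 BioMAP Diversity Plus panel of 12 human primary cell co-culture systems (3C, 4H, LPS, SAg, BT, BF4T, BE3C, CASM3C, HDF3CGF, KF3CT, MyoF, Mphg). Compounds were added 1 h before stimulation and left for 24 h (MyoF 48 h; BT 72 h for soluble read-outs or 6 d for IgG). Biomarkers were read by ELISA, cytotoxicity by SRB, PBMC viability and proliferation by Alamar Blue. Each well value was divided by the mean of 8 DMSO control wells on the same plate and log10 transformed; duplicate blinded samples were tested at 4 concentrations.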

Heptafluorobutyramide = compound: NC(=O)C(F)(F)C(F)(F)C(F)(F)F [Heptafluorobutyramide]; conditions: 2200 nM; in DMSO
Procedure: as §1

[1] = compound: FC(F)(F)C(F)(F)C(F)(F)C(F)(F)C(F)(F)C(F)(F)CC1CO1 [3-(Perfluorohexyl)-1,2-epoxypropane]; conditions: 2200 nM; in DMSO
Procedure: as §1

[2] = compound: OCCC(F)(F)C(F)(F)C(F)(F)C(F)(F)C(F)(F)C(F)(F)F [6:2 Fluorotelomer alcohol]; conditions: 2200 nM; in DMSO
Procedure: as §1

Perfluoropentanoic acid = compound: O=C(O)C(F)(F)C(F)(F)C(F)(F)C(F)(F)F [Perfluoropentanoic acid]; conditions: in DMSO
Procedure: as §1

Perfluoroheptanoic acid = compound: O=C(O)C(F)(F)C(F)(F)C(F)(F)C(F)(F)C(F)(F)C(F)(F)F [Perfluoroheptanoic acid]; conditions: in DMSO
Procedure: as §1

[3] = compound: O=C(O)C(F)(F)C(F)(F)C(F)(F)C(F)(F)C(F)(F)C(F)(F)C(F)(F)C(F)(F)C(F)(F)C(F)F [11-H-Perfluoroundecanoic acid]; conditions: 2200 nM; in DMSO
Procedure: as §1

[4] = compound: CCN(CCO)S(=O)(=O)C(F)(F)C(F)(F)C(F)(F)C(F)(F)C(F)(F)C(F)(F)C(F)(F)C(F)(F)F [N-Ethyl-N-(2-hydroxyethyl)perfluorooctanesulfonamide]; conditions: in DMSO
Procedure: as §1

[5] = compound: O=S(=O)(O)CCC(F)(F)C(F)(F)C(F)(F)C(F)(F)C(F)(F)C(F)(F)C(F)(F)C(F)(F)F [8:2 Fluorotelomer sulfonic acid]; conditions: in DMSO
Procedure: as §1

[6] = compound: O=C(O)C(F)(F)C(F)(F)C(F)(F)OC(F)(F)F [Perfluoro(4-methoxybutanoic) acid]; conditions: 2200 nM; in DMSO
Procedure: as §1

[7] = compound: CC(C)(C)C(=O)CC(=O)C(F)(F)C(F)(F)C(F)(F)F [(Heptafluorobutanoyl)pivaloylmethane]; conditions: 2200 nM; in DMSO
Procedure: as §1

[8] = compound: CN(C(=O)C(F)(F)C(F)(F)C(F)(F)F)[Si](C)(C)C [N-Methyl-N-trimethylsilylheptafluorobutyramide]; conditions: 2200 nM; in DMSO
Procedure: as §1

[9] = compound: Cc1ccc(S(=O)(=O)OCC(F)(F)C(F)(F)C(F)(F)C(F)(F)C(F)(F)C(F)F)cc1 [1H,1H,7H-Perfluoroheptyl 4-methylbenzenesulfonate]; conditions: 2200 nM; in DMSO
Procedure: as §1

Octafluoroadipic acid = compound: O=C(O)C(F)(F)C(F)(F)C(F)(F)C(F)(F)C(=O)O [Octafluoroadipic acid]; conditions: 2200 nM; in DMSO
Procedure: as §1

1-(Perfluorohexyl)octane = compound: CCCCCCCCC(F)(F)C(F)(F)C(F)(F)C(F)(F)C(F)(F)C(F)(F)F [1-(Perfluorohexyl)octane]; conditions: in DMSO
Procedure: as §1

[10] = compound: NCC(F)(F)C(F)(F)C(F)(F)C(F)(F)C(F)(F)C(F)(F)C(F)(F)F [1H,1H-Perfluorooctylamine]; conditions: 2200 nM; in DMSO
Procedure: as §1

| Test System | level (log10) (1H,1H-Heptafluorobutanol) | level (log10) (Heptafluorobutyramide) | level (log10) [1] | level (log10) [2] | level (log10) (Perfluoropentanoic acid; 2200 nM) | level (log10) (Perfluoropentanoic acid; 6700 nM) | level (log10) (Perfluoropentanoic acid; 20000 nM) | level (log10) (Perfluoropentanoic acid; 60000 nM) | level (log10) (Perfluoroheptanoic acid; 2200 nM) | level (log10) (Perfluoroheptanoic acid; 6700 nM) | level (log10) (Perfluoroheptanoic acid; 20000 nM) | level (log10) (Perfluoroheptanoic acid; 60000 nM) | level (log10) [3] | level (log10) ([4]; 2200 nM) | level (log10) ([4]; 6700 nM) | level (log10) ([4]; 20000 nM) | level (log10) ([5]; 2200 nM) | level (log10) ([5]; 6700 nM) | level (log10) ([5]; 20000 nM) | level (log10) ([5]; 60000 nM) | level (log10) [6] | level (log10) [7] | level (log10) [8] | level (log10) [9] | level (log10) (Octafluoroadipic acid) | level (log10) (1-(Perfluorohexyl)octane; 740 nM) | level (log10) (1-(Perfluorohexyl)octane; 2200 nM) | level (log10) [10] |
| --- | --- | --- | --- | --- | --- | --- | --- | --- | --- | --- | --- | --- | --- | --- | --- | --- | --- | --- | --- | --- | --- | --- | --- | --- | --- | --- | --- | --- |
| BE3C:PAI-I | -0.0225 ± 0.0092 | -0.001 ± 0.016 | 0.012 ± 0.025 | -0.0115 ± 0.013 | 0.002 ± 0.04 | -0.021 ± 0.0071 | -0.02 ± 0.0057 | 0.015 ± 0.057 | 0.013 ± 0.014 | 0.007 ± 0.0028 | 0.027 ± 0.0057 | 0.042 ± 0.021 | 0.043 ± 0.021 | -0.0085 ± 0.005 | -0.066 ± 0.0071 | -0.092 ± 0.017 | 0.029 ± 0.016 | 0.044 ± 0.014 | 0.126 ± 0.026 | 0.0955 ± 0.011 | 0.01 ± 0.0071 | -0.039 ± 0.065 | -0.0015 ± 0.029 | 0.0015 ± 0.0078 | 0.008 ± 0.017 | -0.0035 ± 0.047 | 0.0115 ± 0.0064 | -0.01 ± 0.017 |
| LPS:CD106/VCAM-1 | -0.02 ± 0.0042 | 0.006 ± 0.0042 | -0.011 ± 0.0042 | -0.0045 ± 0.0092 | -0.0005 ± 0.019 | 0.005 ± 0.013 | 0.004 ± 0.0057 | 0.0035 ± 0.023 | -0.002 ± 0.013 | -0.014 ± 0.021 | -0.0155 ± 0.025 | -0.013 ± 0.025 | 0.029 ± 0.0085 | 0.009 ± 0.031 | -0.0195 ± 0.023 | -0.0395 ± 0.012 | 0.001 ± 0.067 | -0.0135 ± 0.073 | -0.021 ± 0.065 | -0.0535 ± 0.077 | -0.0065 ± 0.026 | -0.02 ± 0.033 | -0.002 ± 0.0028 | 0.004 ± 0.0042 | -0.0115 ± 0.049 | 0.005 ± 0.023 | -0.005 ± 0.028 | -0.005 ± 0.02 |
| BT:sIL-6 | 0.0355 ± 0.043 | 0.046 ± 0.072 | -0.0335 ± 0.029 | 0.0145 ± 0.04 | 0.028 ± 0.018 | -0.0355 ± 0.1 | 0.01 ± 0.051 | 0.022 ± 0.04 | -0.022 ± 0.079 | 0.02 ± 0.065 | 0.0175 ± 0.044 | -0.0375 ± 0.071 | -0.052 ± 0.021 | 0.115 ± 0.11 | 0.078 ± 0.0014 | -0.049 ± 0.054 | 0.0145 ± 0.0064 | 0.015 ± 0.035 | 0.0445 ± 0.015 | -0.005 ± 0.085 | 0.0175 ± 0.064 | 0.013 ± 0.033 | -0.0735 ± 0.012 | 0.0045 ± 0.03 | 0.049 ± 0.054 | -0.013 ± 0.0028 | 0.0075 ± 0.018 | 0.0165 ± 0.032 |
| KF3CT:SRB | 0.0075 ± 0.013 | 0.0115 ± 0.018 | 0.008 ± 0.02 | 0.001 ± 0.014 | 0.003 ± 0.018 | -0.007 ± 0.0071 | -0.004 ± 0.0014 | 0.0055 ± 0.011 | 0.0105 ± 0.011 | -0.0065 ± 0.005 | -0.006 ± 0.0085 | 0.007 ± 0.016 | -0.003 ± 0.0014 | -0.005 ± 0.0042 | -0.015 | -0.0305 ± 0.0092 | -0.0005 ± 0.011 | -0.008 ± 0.0014 | -0.0145 ± 0.0021 | -0.004 ± 0.0071 | 0.0105 ± 0.019 | 0.0105 ± 0.016 | -0.0055 ± 0.0064 | -0.003 ± 0.017 | 0.014 ± 0.018 | 0.006 ± 0.016 | -0.0005 ± 0.023 | 0.0005 ± 0.0021 |
| BE3C:CXCL8/IL-8 | 0.031 ± 0.027 | 0.059 ± 0.034 | 0.023 ± 0.069 | 0.0165 ± 0.07 | -0.008 ± 0.041 | -0.023 ± 0.0042 | -0.036 ± 0.017 | -0.0085 ± 0.057 | 0.0585 ± 0.019 | 0.033 ± 0.041 | 0.008 ± 0.042 | 0.0205 ± 0.1 | 0.021 ± 0.071 | -0.0055 ± 0.028 | -0.0825 ± 0.013 | -0.218 ± 0.056 | 0.0155 ± 0.015 | -0.0045 ± 0.022 | -0.06 ± 0.0014 | -0.134 ± 0.005 | 0.069 ± 0.057 | 0.0175 ± 0.044 | 0.063 ± 0.0028 | 0.0135 ± 0.1 | 0.0615 ± 0.013 | 0.0495 ± 0.16 | 0.017 ± 0.065 | -0.0035 ± 0.016 |
| BE3C:HLA-DR | -0.0025 ± 0.015 | 0.0175 ± 0.033 | 0.003 ± 0.045 | 0.0205 ± 0.059 | 0.0125 ± 0.026 | -0.0095 ± 0.018 | 0 ± 0.011 | 0.016 ± 0.033 | 0.016 ± 0.031 | -0.009 ± 0.0014 | -0.004 ± 0.0014 | 0.002 ± 0.027 | -0.047 ± 0.037 | -0.033 ± 0.023 | -0.0445 ± 0.013 | -0.115 ± 0.031 | -0.0045 ± 0.019 | -0.0175 ± 0.037 | -0.111 ± 0.005 | -0.255 ± 0.0014 | 0.003 ± 0.014 | 0.004 ± 0.0071 | 0.007 ± 0.025 | -0.0095 ± 0.018 | 0.009 ± 0.0099 | 0.0195 ± 0.015 | 0.0065 ± 0.032 | 0.026 ± 0.0014 |
| 3C:CD106/VCAM-1 | 0.0115 ± 0.0035 | -0.007 ± 0.014 | -0.016 ± 0.02 | 0.008 ± 0.0014 | -0.0065 ± 0.011 | 0.002 ± 0.023 | -0.0055 ± 0.021 | 0.0235 ± 0.015 | 0.0075 ± 0.023 | 0.0165 ± 0.018 | -0.02 ± 0.0042 | -0.003 ± 0.014 | -0.008 ± 0.014 | -0.005 ± 0.021 | 0.0005 ± 0.005 | 0.005 ± 0.0085 | 0.006 ± 0.035 | 0.002 ± 0.0014 | 0.009 ± 0.0028 | 0.019 ± 0.016 | -0.02 ± 0.023 | -0.004 ± 0.0099 | -0.026 ± 0.0028 | -0.03 ± 0.02 | -0.009 ± 0.02 | -0.01 ± 0.0042 | -0.0065 ± 0.013 | -0.001 ± 0.0099 |
| KF3CT:MMP-9 | -0.0135 ± 0.0064 | 0.0105 ± 0.005 | -0.0015 ± 0.0078 | 0.011 ± 0.0042 | -0.0025 ± 0.013 | -0.0225 ± 0.025 | -0.0205 ± 0.018 | 0.012 ± 0.038 | -0.0055 ± 0.037 | -0.0065 ± 0.0078 | 0.0165 ± 0.026 | 0.059 ± 0.025 | -0.0165 ± 0.022 | 0.0165 ± 0.012 | 0.01 ± 0.0085 | -0.0875 ± 0.015 | -0.0125 ± 0.0035 | -0.009 ± 0.0014 | 0.0165 ± 0.0078 | -0.0335 ± 0.018 | 0.0175 ± 0.0092 | -0.0305 ± 0.013 | -0.008 ± 0.017 | 0.0055 ± 0.052 | 0.002 | 0.0195 ± 0.037 | 0.0085 ± 0.039 | -0.0145 ± 0.012 |
